According to the supplement of paper PMC10849652:
The list shows a part of the results.

Amino acid sequences for entries named in this document (tags omitted). A change or cut given only in a name is not applied to a line headed by its entry.
UniProt P50995, whole entry, looked up: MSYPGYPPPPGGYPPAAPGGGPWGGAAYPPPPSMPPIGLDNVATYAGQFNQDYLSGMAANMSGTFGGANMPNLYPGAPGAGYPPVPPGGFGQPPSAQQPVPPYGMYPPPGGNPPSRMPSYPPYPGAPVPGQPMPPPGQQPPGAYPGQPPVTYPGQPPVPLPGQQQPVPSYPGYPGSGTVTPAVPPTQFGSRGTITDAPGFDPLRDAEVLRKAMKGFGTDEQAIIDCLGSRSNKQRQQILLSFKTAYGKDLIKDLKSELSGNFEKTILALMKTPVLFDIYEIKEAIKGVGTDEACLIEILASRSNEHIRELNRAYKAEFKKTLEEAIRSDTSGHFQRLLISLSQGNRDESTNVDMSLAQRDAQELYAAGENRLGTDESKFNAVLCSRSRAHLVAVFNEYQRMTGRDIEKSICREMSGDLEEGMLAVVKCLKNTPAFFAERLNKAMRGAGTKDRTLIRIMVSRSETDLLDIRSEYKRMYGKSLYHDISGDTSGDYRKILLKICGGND
UniProt P39687: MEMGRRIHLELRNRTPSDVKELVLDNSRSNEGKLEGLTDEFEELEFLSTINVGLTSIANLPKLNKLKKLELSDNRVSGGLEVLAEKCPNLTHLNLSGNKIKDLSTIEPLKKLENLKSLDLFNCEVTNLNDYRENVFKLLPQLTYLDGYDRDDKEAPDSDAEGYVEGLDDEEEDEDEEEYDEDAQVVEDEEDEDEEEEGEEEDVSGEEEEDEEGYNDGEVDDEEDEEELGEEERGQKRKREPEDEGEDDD
UniProt P16157: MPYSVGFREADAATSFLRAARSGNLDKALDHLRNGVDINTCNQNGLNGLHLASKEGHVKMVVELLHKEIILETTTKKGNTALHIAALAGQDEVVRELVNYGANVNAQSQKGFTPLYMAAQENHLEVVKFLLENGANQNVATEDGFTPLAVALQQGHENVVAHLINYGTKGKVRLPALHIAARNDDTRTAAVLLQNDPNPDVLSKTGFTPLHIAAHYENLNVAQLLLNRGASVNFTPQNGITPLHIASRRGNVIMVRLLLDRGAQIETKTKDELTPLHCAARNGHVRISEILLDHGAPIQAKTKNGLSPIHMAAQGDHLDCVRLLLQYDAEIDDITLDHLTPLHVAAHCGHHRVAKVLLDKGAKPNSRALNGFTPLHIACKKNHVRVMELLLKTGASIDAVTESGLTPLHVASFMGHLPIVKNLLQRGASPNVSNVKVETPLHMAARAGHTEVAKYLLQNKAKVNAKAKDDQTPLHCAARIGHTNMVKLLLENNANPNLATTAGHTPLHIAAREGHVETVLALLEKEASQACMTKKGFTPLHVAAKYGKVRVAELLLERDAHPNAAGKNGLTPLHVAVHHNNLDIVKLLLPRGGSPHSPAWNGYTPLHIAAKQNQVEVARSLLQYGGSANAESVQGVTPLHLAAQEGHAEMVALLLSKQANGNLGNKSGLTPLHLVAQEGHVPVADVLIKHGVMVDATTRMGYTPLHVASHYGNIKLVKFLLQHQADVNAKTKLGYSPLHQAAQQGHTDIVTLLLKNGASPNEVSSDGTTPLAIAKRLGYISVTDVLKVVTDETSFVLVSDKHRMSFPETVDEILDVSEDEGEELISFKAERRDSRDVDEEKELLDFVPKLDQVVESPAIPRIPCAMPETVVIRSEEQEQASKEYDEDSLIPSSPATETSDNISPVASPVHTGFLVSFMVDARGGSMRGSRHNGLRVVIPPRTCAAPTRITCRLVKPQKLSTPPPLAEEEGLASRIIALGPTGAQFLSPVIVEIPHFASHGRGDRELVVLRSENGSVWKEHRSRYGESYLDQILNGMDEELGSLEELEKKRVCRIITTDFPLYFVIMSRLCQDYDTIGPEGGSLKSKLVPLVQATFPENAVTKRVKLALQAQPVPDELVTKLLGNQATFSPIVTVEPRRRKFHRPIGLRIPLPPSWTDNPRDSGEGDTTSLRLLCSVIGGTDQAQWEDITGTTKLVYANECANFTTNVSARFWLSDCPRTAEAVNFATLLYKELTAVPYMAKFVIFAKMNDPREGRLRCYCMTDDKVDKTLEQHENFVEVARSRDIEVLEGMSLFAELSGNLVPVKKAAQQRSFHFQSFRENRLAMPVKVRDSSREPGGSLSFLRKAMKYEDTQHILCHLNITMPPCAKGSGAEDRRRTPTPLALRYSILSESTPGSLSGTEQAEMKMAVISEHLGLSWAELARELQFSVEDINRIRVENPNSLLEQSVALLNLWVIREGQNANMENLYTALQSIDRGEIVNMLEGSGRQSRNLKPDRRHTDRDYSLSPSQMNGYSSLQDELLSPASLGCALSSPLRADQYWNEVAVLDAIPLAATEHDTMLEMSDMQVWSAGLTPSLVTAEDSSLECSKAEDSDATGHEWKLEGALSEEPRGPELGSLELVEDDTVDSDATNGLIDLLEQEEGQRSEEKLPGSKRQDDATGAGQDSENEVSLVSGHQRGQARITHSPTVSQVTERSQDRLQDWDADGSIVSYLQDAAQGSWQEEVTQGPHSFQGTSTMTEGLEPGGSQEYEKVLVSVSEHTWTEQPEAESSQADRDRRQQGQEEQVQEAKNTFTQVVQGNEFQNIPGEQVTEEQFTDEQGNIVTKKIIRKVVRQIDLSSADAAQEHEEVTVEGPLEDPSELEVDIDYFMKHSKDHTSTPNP
UniProt P63010: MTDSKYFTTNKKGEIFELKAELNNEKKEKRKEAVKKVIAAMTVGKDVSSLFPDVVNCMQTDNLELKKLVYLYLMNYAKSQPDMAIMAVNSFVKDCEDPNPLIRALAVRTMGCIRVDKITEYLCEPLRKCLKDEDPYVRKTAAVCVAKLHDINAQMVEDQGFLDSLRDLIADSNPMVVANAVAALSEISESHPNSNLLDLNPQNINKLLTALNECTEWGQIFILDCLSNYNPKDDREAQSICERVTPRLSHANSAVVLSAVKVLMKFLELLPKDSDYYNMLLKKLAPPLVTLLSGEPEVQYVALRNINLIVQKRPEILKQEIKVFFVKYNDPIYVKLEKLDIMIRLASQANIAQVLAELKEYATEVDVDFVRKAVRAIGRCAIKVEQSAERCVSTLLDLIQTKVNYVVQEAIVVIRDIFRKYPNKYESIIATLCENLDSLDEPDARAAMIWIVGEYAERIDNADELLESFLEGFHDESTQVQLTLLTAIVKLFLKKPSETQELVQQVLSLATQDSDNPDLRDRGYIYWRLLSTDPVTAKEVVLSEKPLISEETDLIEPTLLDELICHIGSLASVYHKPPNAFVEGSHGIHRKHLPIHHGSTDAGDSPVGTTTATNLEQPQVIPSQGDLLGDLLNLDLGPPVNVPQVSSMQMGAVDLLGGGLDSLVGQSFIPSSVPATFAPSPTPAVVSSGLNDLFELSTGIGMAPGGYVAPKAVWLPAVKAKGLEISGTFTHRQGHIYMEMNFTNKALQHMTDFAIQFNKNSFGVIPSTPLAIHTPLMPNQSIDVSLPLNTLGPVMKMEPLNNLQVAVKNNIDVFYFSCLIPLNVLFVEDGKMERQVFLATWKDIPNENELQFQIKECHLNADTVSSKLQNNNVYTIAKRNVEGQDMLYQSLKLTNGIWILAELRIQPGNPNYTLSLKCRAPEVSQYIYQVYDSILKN
UniProt Q6NXT1: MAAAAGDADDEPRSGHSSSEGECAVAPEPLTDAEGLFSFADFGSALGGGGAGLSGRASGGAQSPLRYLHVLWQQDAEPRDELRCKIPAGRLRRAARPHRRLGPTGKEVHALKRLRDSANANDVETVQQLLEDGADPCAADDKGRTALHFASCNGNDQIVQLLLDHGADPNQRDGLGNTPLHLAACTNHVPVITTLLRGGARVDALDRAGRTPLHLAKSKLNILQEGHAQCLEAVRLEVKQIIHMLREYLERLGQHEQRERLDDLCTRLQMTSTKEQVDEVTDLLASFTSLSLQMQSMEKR
UniProt O00203: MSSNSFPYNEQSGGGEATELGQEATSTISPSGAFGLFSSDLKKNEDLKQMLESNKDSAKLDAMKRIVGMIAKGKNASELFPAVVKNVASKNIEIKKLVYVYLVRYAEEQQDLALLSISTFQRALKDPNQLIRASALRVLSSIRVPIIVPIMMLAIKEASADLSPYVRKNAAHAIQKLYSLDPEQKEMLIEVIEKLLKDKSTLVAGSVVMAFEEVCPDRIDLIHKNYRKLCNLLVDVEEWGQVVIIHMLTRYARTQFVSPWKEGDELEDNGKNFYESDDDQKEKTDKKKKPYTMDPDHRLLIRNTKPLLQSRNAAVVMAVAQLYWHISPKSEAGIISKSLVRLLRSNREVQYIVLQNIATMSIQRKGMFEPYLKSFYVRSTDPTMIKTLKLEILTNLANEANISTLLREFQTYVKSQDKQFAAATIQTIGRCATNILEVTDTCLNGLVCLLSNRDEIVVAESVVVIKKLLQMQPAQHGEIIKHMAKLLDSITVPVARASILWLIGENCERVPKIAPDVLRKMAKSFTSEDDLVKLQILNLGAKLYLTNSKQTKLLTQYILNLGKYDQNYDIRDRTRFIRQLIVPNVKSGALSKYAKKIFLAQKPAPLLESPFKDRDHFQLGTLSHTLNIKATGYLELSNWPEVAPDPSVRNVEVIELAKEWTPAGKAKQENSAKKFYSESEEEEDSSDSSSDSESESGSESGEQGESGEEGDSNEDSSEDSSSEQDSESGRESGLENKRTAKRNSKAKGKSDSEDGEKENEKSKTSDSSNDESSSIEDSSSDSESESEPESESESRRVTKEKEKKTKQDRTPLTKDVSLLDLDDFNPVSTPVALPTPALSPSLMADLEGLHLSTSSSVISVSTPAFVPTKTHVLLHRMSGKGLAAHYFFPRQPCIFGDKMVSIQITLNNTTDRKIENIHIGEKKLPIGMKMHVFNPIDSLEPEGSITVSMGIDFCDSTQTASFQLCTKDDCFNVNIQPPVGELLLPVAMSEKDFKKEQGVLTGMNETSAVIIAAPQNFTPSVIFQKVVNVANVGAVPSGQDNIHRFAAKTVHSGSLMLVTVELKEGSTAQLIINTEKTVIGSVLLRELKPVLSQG
UniProt P10398: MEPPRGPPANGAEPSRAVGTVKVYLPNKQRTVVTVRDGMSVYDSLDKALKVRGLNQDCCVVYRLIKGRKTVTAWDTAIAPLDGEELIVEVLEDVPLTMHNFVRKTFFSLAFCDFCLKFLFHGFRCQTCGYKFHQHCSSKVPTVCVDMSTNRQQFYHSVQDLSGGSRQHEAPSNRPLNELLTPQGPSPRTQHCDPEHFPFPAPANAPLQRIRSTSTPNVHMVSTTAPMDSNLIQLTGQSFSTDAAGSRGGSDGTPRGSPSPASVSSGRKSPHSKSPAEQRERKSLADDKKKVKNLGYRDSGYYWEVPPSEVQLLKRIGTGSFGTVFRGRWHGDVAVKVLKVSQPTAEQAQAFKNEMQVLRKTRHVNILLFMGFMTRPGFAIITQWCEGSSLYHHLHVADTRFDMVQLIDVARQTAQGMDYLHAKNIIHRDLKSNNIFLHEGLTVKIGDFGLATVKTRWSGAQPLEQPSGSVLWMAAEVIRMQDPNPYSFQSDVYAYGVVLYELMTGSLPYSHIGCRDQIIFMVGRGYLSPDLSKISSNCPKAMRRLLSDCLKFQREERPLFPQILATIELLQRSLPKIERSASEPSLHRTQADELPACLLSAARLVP
UniProt P12429: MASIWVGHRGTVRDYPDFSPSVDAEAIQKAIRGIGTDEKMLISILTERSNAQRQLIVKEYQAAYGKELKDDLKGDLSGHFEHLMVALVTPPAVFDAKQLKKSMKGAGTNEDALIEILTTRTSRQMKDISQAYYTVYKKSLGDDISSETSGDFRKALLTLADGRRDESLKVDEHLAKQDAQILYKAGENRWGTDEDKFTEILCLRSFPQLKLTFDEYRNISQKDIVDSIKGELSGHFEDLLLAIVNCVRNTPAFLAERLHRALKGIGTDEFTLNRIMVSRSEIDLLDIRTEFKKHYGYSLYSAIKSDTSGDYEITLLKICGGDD
UniProt P02654: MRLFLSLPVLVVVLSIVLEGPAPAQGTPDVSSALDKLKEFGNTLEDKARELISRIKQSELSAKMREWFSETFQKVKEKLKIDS
UniProt P52565: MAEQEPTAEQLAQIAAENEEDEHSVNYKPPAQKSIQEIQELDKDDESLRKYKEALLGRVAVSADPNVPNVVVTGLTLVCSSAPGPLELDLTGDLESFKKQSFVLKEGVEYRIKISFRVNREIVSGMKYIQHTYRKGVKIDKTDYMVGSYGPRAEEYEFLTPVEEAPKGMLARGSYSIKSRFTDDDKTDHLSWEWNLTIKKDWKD
UniProt P08758: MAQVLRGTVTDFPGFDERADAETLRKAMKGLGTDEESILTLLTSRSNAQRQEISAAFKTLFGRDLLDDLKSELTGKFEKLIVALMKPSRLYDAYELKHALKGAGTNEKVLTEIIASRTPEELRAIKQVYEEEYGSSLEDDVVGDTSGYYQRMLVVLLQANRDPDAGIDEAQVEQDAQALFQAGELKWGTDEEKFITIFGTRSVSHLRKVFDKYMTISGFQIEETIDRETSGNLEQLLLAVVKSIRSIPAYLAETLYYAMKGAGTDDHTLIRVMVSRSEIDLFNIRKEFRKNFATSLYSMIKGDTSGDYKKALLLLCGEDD

What was measured:
Assay in all cases: log2 fold change, soluble protein after heating vs DMSO (PISA); higher = thermal stabilisation; K562 cells, 10 uM, 30 min; active = over 0.2 and 3.5 SD of the protein, either way, in both replicates (recomputed)
erlotinib = compound: C#Cc1cccc(Nc2ncnc3cc(OCCOC)c(OCCOC)cc23)c1 [erlotinib]
Method in brief: (§1)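 Aliquots of K562 cells (2×10^6 cells/mL) treated with 10 μM compound for 30 min were heated for 3 min over 48°C-58°C. After pooling and extraction in PBS with 0.5% NP-40 at 4°C, soluble protein from a 21,000xg, 90 min spin was quantified by TMTpro 16plex LC-MS/MS with channel sums equalised. Thermal stability is expressed against control samples, from duplicates, as a log2 fold change.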

[1] = compound: C/C(=N\NC(=O)C1=CC(=CC=C1)S(=O)(=O)N2CCOCC2)/C3=C(C=CC(=C3)Cl)O
Method in brief: as §1

[2] = compound: C1=CC(=C(C=C1Cl)C2=NC3=NC=CN=C3C(=N2)NC4=CC=NC=C4)F
Method in brief: as §1

[3] = compound: C1=CC(=CC=C1C2=NC3=C(N2)C=C(C=C3)C(=O)N)OC4=CC=C(C=C4)Cl
Method in brief: as §1

[4] = compound: C1=CC2=C(C=CC(=C2)/C=C\3/C(=O)NC(=NCC4=CC=CS4)S3)N=C1
Method in brief: as §1

[5] = compound: C1=CC2=NC=CN=C2C=C1/C=C/3\C(=O)NC(=O)S3
Method in brief: as §1

[6] = compound: C1=CC=C(C=C1)C2=NC(=C(N2)C3=CC=NC=C3)C4=CC(=C(C=C4)Cl)O
Method in brief: as §1

[7] = compound: C1=CC=C2C(=C1)C3=NNC4=CC=CC(=C43)C2=O
Method in brief: as §1

[8] = compound: C1CCN(C1)C(=O)NC2=CC=CC(=C2)NC3=NC=C(C(=N3)NCCC4=CN=CN4)Br
Method in brief: as §1

[9] = compound: C1CN(CCC1(CC2=CC=C(C=C2)Cl)N)C3=NC=NC4=C3C=CN4
Method in brief: as §1

Measured: log2 fold change

ANXA11 (UniProt P50995)
inactive: erlotinib 0.018 | [1] 0.094 | [2] 0.068 | [3] -0.029 | [4] 0.048 | [5] -0.013 | [6] 0.042 | [7] 0.079 | [8] 0 | [9] -0.028

ARF6 (UniProt P62330)
inactive: erlotinib 0.035 | [1] 0.034 | [2] 0.018 | [3] -0.042 | [4] -0.08 | [5] 0.038 | [6] 0.067 | [7] -0.008 | [8] -0.028 | [9] 0.058

ARHGEF2 (UniProt Q92974)
inactive: erlotinib 0 | [1] -0.053 | [2] -0.603 | [3] 0.021 | [4] 0 | [5] 0.018 | [6] -0.04 | [7] -0.017 | [8] -0.086 | [9] -0.096

ANKRD29 (UniProt Q8N6D5)
active: [1] -0.445
inactive: erlotinib 0.243 | [2] 0.083 | [3] -0.021 | [4] 0.223 | [5] -0.015 | [6] -0.046 | [7] 0.098 | [8] -0.025 | [9] 0.096

ANP32A (UniProt P39687)
inactive: erlotinib -0.005 | [1] 0.019 | [2] 0.092 | [3] 0.009 | [4] -0.038 | [5] -0.001 | [6] 0.056 | [7] 0.017 | [8] 0.017 | [9] 0.038

APOO (UniProt Q9BUR5)
inactive: erlotinib 0.038 | [1] 0.039 | [2] 0.102 | [3] -0.015 | [4] -0.04 | [5] 0.032 | [6] -0.049 | [7] -0.065 | [8] 0.011 | [9] 0.008

APMAP (UniProt Q9HDC9)
inactive: erlotinib 0.006 | [1] -0.006 | [2] 0.002 | [3] 0 | [4] 0.013 | [5] 0.01 | [6] -0.049 | [7] 0.01 | [8] 0.014 | [9] 0.037

ARHGAP18 (UniProt Q8N392)
inactive: erlotinib 0.063 | [1] 0.032 | [2] -0.142 | [3] -0.071 | [4] 0.053 | [5] 0.024 | [6] -0.105 | [7] 0.104 | [8] -0.072 | [9] -0.171

API5 (UniProt Q9BZZ5)
inactive: erlotinib -0.025 | [1] 0.023 | [2] 0.051 | [3] 0.005 | [4] 0.007 | [5] -0.003 | [6] 0.003 | [7] 0.022 | [8] -0.01 | [9] 0.041

ANKRD28 (UniProt O15084)
inactive: erlotinib -0.023 | [1] 0.013 | [2] 0.044 | [3] -0.007 | [4] 0.028 | [5] 0.006 | [6] 0.038 | [7] -0.049 | [8] 0.007 | [9] -0.009

ANK1 isoform 14 (UniProt P16157)
inactive: erlotinib -0.128 | [1] -0.023 | [2] -0.403 | [3] 0.028 | [4] -0.001 | [5] 0 | [6] -0.043 | [7] 0.024 | [8] -0.038 | [9] -0.344

AP2B1 isoform 2 (UniProt P63010)
active: [8] -0.225
inactive: erlotinib -0.021 | [1] 0.017 | [2] -0.01 | [3] 0.003 | [4] 0.004 | [5] -0.009 | [6] -0.004 | [7] -0.158 | [9] -0.003

APC (UniProt P25054)
inactive: erlotinib -0.011 | [1] -0.01 | [2] -0.165 | [3] 0.107 | [4] 0.038 | [5] -0.09 | [6] 0.056 | [7] -0.174 | [8] -0.061 | [9] 0.122

ARHGEF12 (UniProt Q9NZN5)
inactive: erlotinib 0.012 | [1] 0.101 | [2] -0.257 | [3] 0.051 | [4] -0.219 | [5] 0.11 | [6] -0.019 | [7] -0.021 | [8] -0.017 | [9] -0.109

ANKRD54 (UniProt Q6NXT1)
inactive: erlotinib -0.021 | [1] 0.015 | [2] -0.029 | [3] 0.022 | [4] -0.024 | [5] -0.001 | [6] -0.03 | [7] -0.031 | [8] -0.003 | [9] 0.041

AP3D1 isoform 5 (UniProt O14617)
inactive: erlotinib -0.003 | [1] 0.086 | [2] -0.024 | [3] -0.001 | [4] 0.019 | [5] -0.012 | [6] 0.033 | [7] 0 | [8] 0.018 | [9] -0.006

AP1G1 isoform 2 (UniProt O43747)
inactive: erlotinib 0.012 | [1] 0.035 | [2] 0.026 | [3] -0.02 | [4] 0.011 | [5] 0.037 | [6] 0.073 | [7] -0.029 | [8] -0.007 | [9] -0.049

API5 isoform 2 (UniProt Q9BZZ5)
inactive: erlotinib 0.077 | [1] 0.062 | [2] 0.213 | [3] -0.141 | [4] -0.125 | [5] -0.004 | [6] 0.007 | [7] -0.052 | [8] -0.042 | [9] -0.038

ANK3 (UniProt Q12955)
inactive: erlotinib 0.102 | [1] -0.017 | [2] -0.002 | [3] -0.016 | [4] -0.153 | [5] -0.072 | [6] -0.066 | [7] 0.071 | [8] -0.083 | [9] -0.047

ARFIP2 (UniProt P53365)
inactive: erlotinib 0.056 | [1] 0.088 | [2] 0.114 | [3] 0.015 | [4] -0.052 | [5] 0.018 | [6] 0.017 | [7] -0.03 | [8] -0.051 | [9] 0.075

AP3B1 (UniProt O00203)
inactive: erlotinib 0.008 | [1] 0.072 | [2] 0.024 | [3] -0.014 | [4] 0.061 | [5] 0.014 | [6] 0.07 | [7] 0.023 | [8] -0.014 | [9] -0.009

ARGLU1 (UniProt Q9NWB6)
active: [4] -0.38
inactive: erlotinib 0.016 | [1] 0.052 | [2] -0.183 | [3] 0.115 | [5] 0.014 | [6] -0.125 | [7] -0.235 | [8] -0.02 | [9] -0.232

ARAF (UniProt P10398)
inactive: erlotinib 0.014 | [1] 0.096 | [2] 0.061 | [3] 0.014 | [4] 0.26 | [5] -0.012 | [6] 0.077 | [7] -0.187 | [8] -0.017 | [9] 0.035

ANXA3 (UniProt P12429)
inactive: erlotinib -0.019 | [1] 0.049 | [2] 0.014 | [3] 0 | [4] 0.081 | [5] 0.035 | [6] -0.023 | [7] 0.016 | [8] -0.007 | [9] 0.081

APOC1 (UniProt P02654)
inactive: erlotinib -0.166 | [1] 0.079 | [2] 0.277 | [3] 0.099 | [4] 0.028 | [5] 0.111 | [6] 0.111 | [7] -0.004 | [8] -0.084 | [9] -0.065

ARHGDIA (UniProt P52565)
inactive: erlotinib 0.014 | [1] 0.093 | [2] 0.057 | [3] 0.003 | [4] -0.076 | [5] 0.003 | [6] -0.017 | [7] 0.09 | [8] -0.075 | [9] 0.039

ANKRD46 (UniProt Q86W74)
inactive: erlotinib 0.094 | [1] 0.069 | [2] 0.028 | [3] -0.052 | [4] 0.128 | [5] 0.012 | [6] -0.068 | [7] 0.022 | [8] -0.054 | [9] -0.031

ANXA5 (UniProt P08758)
inactive: erlotinib -0.012 | [1] 0.1 | [2] 0.06 | [3] -0.039 | [4] 0.009 | [5] 0.002 | [6] 0.013 | [7] 0.038 | [8] 0.022 | [9] -0.012

Quoted from above (7 entries):
ANK3 (UniProt Q12955)
inactive: erlotinib 0.102 | [1] -0.017 | [2] -0.002 | [3] -0.016 | [4] -0.153 | [5] -0.072 | [6] -0.066 | [7] 0.071 | [8] -0.083 | [9] -0.047

ARFIP2 (UniProt P53365)
inactive: erlotinib 0.056 | [1] 0.088 | [2] 0.114 | [3] 0.015 | [4] -0.052 | [5] 0.018 | [6] 0.017 | [7] -0.03 | [8] -0.051 | [9] 0.075

AP3B1 (UniProt O00203)
inactive: erlotinib 0.008 | [1] 0.072 | [2] 0.024 | [3] -0.014 | [4] 0.061 | [5] 0.014 | [6] 0.07 | [7] 0.023 | [8] -0.014 | [9] -0.009

ARGLU1 (UniProt Q9NWB6)
active: [4] -0.38
inactive: erlotinib 0.016 | [1] 0.052 | [2] -0.183 | [3] 0.115 | [5] 0.014 | [6] -0.125 | [7] -0.235 | [8] -0.02 | [9] -0.232

ARAF (UniProt P10398)
inactive: erlotinib 0.014 | [1] 0.096 | [2] 0.061 | [3] 0.014 | [4] 0.26 | [5] -0.012 | [6] 0.077 | [7] -0.187 | [8] -0.017 | [9] 0.035

ANXA3 (UniProt P12429)
inactive: erlotinib -0.019 | [1] 0.049 | [2] 0.014 | [3] 0 | [4] 0.081 | [5] 0.035 | [6] -0.023 | [7] 0.016 | [8] -0.007 | [9] 0.081

APOC1 (UniProt P02654)
inactive: erlotinib -0.166 | [1] 0.079 | [2] 0.277 | [3] 0.099 | [4] 0.028 | [5] 0.111 | [6] 0.111 | [7] -0.004 | [8] -0.084 | [9] -0.065

Later entries.

ARID1A (UniProt O14497)
inactive: erlotinib 0.023 | [1] -0.027 | [2] -0.053 | [3] 0.025 | [4] 0.197 | [5] 0.035 | [6] -0.188 | [7] -0.054 | [8] -0.033 | [9] -0.014

ANAPC16 (UniProt Q96DE5)
inactive: erlotinib -0.05 | [1] 0.055 | [2] -0.077 | [3] -0.004 | [4] 0.105 | [5] 0.04 | [6] -0.021 | [7] -0.055 | [8] -0.105 | [9] -0.175
